Among all 6,900 compounds or so, fewer than 10 were called active. Calls follow the shape of the dose curve; as a rule, active = well fitted curve in the direction sought with a large enough effect; inconclusive = small, poorly fitted or top-dose-only effect, or another doubt; inactive = no such curve, though single readings can be large or run the other way. The list shows a part of the results.
Target: Metallo-beta-lactamase type 2 (Klebsiella pneumoniae) (UniProt C7C422)
Assay: qHTS to identify inhibitors of the New Delhi Metallo-beta-lactamase (NDM): primary screen against the NCATS Gemini Collection; also: % of control where 0% means no effect
Settings: NDM-1 enzyme, meropenem hydrolysis, absorbance 300 nm; at 38.4 µM (top of the series) unless noted
Source text: Assay Submitter (PI): James Inglese Ph.D., Patricia Dranchak Ph.D., Mahesh Aitha Ph.D. Assay Development and Screening Technology Laboratory (ADST) National Center for Advancing Translational Sciences (NCATS), Rockville, MD National Institute of Health (NIH), Bethesda, Maryland The metallo-beta-lactamases (MBL) are a main antibiotic resistance mechanism evolved by bacteria. There is an urgent clinical need for MBL inhibitors to mitigate this growing threat. To support a machine-based learning study, qHTS has been used to experimentally test inhibitors identified by prediction tools.
PROTOCOL TABLE (as described by Inglese et al., 2007) SEQUENCE No. (e.g., 1, 2, 3, etc.); […] (e.g., enzyme, Incubation, Reagent, etc.); VALUE; DESCRIPTION 1; NDM-1; 4 uL of 3 nM enzyme [2 nM final] in 50 mM HEPES (pH 7.0), 1 uM […], 0.01% Tween20; Use BioRaptr to dispense into Aurora black, clear bottom low base 1536-well plates 2; Compounds; 23 nL; Use Pin Tool (Wako) to transfer DMSO control and library compounds in DMSO 3; Incubate; >30 min 4; Reagent; 2 uL of 150 uM meropenem [50 uM final] 5; Incubate; 30 min. 6; Detector; Absorbance at 300 nm (bandwidth = 5 nm, 25 flashes/well) on Tecan Infinity NOTES (numbers refer to sequence above) 1; Column 1 of each plate received assay buffer without enzyme and columns 2-48 received enzyme for a final assay concentration of 2 nM. 2; Control plate contained DMSO in columns 1, 2, 3, and 4. 3; Compound interaction with enzyme. 4; Meropenem substrate was prepared in the same assay buffer as step 1 for a final assay concentration of 50 uM and added to all wells across the assay plates. 5; Substrate interaction with enzyme, plateau phase of kinetics. 6; Default reader settings were applied for absorbance read at 300 nm, bandwidth = 5 nm, 25 flashes/well. References: Inglese J, Shamu CE, Guy RK. 2007. Reporting data from high-throughput screening of small-molecule libraries. Nat Chem Biol. doi:10.1038/nchembio0807-438 Yasgar A, Shinn P, Jadhav A, Auld D, Michael S, Zheng W, Austin CP, Inglese J, Simeonov A. 2008. Compound Management for Quantitative High-Throughput Screening. J Lab Autom 13:79 - 89. doi:10.1016/j.jala.2007.12.004

Chains of the proteins cited; added tags and fusions are not shown. Lines headed by an entry give the natural chain unless they say otherwise; changes in a name come on top.
UniProt C7C422: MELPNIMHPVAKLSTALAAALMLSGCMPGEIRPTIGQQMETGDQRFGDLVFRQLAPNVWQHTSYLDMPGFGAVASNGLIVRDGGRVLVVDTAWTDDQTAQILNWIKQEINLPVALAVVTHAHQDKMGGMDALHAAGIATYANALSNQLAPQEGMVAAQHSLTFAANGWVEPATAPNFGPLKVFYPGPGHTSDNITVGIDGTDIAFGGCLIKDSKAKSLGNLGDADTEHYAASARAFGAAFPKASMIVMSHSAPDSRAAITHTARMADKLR

Activity % (negative = inhibition), inactive:
NCCc1cccc(CN2CCCC(CO)(CC3CC3)C2)c1 (configuration not stated) -4.92%
COc1ccc(CN2C[C@H]3CN(S(=O)(=O)c4ccc(C)cc4)CCN3C2=O)cc1 -1.04% [at 57.5 µM]
CN(C)c1nc2c(c(N3C[C@@H](CN4CCCC4)[C@@H](CO)C3)n1)CCCC2 -5.65%
Cc1nccn1CCC1CCN(c2nccc(-c3ccccn3)n2)CC1 -11%
Cc1ccccc1C(=O)N(C)C1CCCc2ccccc21 (configuration not stated) -0.841% [at 57.5 µM]
COCC(=O)N1CCC(C(=O)NC(C)c2ccc3c(c2)OCCCO3)CC1 (configuration not stated) 3.88%
COc1ccc(C(=O)N2CCC23Cc2ccccc2NC3=O)cc1 (configuration not stated) 2.42% [at 57.5 µM]
C[S+](=O)([O-])N1CC2(CCCCN2Cc2ccc(Cl)cc2)Cc2ccccc21 (configuration not stated) -5.65%
CC(C)c1ccc(CN2CC(CNC(=O)c3cnn(C)c3)C3(C2)CN(c2ccccc2)C3)cc1 (configuration not stated) -1.54%
COCCC1(NS(=O)(=O)N(C)C)CCN(S(C)(=O)=O)CC1 21.7%
CNCc1cn(C[C@H]2O[C@@H](CC(=O)NCc3ccc(F)cc3)[C@H](O)[C@@H]2O)nn1 20.6% [at 57.5 µM]
CCNC(=O)NC1(CCOC)CCN(C(=O)c2ccoc2)CC1 5.67%
Cc1ccsc1CN1CCC2(CC1)Cc1ccccc1CNC2=O 0.234%
COc1ccccc1C(=O)N1CCCCCC1CN1CCc2ccccc2C1 (configuration not stated) 4.66%
Cc1ccc(-c2cccc(CN3CCCC(c4nc5ccc(C)cc5c(=O)[nH]4)C3)c2)c(C)c1 (configuration not stated) -0.327%
O=C(CCn1ccc(=O)[nH]c1=O)N[C@H](c1cccs1)C1CC(O)C1 (some centres not stated) 0.26%
COc1cccc(S(=O)(=O)N2C[C@@H](F)C[C@H]2C(=O)N2CCc3ccccc3C2)c1 -2.34%
O=C(c1cc(-c2ccc(F)cc2)n[nH]1)N1CCC(OCC2CC2)C1 (configuration not stated) -0.497%
COC[C@H]1CCCN1Cc1nc(C2(O)CCN(C(=O)CC(C)(C)C)CC2)cs1 -2.78% [at 57.5 µM]
CCCNC(=O)C1COC2(CCN(C(=O)Cc3ccccc3)CC2)N1C(=O)c1cccc(C)c1 (configuration not stated) -13%
COc1ccccc1N1CCN([C@@H]2[C@H](O)[C@H](CO)O[C@@H]2CNC2CCCCC2)CC1 19.4%
CCNC(=O)N1CCC[C@@H](O)[C@H](NC(=O)c2ccc(OCc3c(C)noc3C)cc2)C1 17.7% [at 57.5 µM]
COc1cc2c(cc1CN1CCn3nc(C(O)CO)cc3C1)OCCO2 (configuration not stated) -4.89%
O=C1[C@H]2CN(Cc3cccc(Cl)c3F)C[C@H]2C(=O)N1Cc1ccc2c(c1)OCO2 2.66%
COc1cccc([S+](=O)([O-])N2CCC3(C2)C(=NC2CCCCC2)NC(=O)N3c2cc(F)cc(F)c2)c1 (configuration not stated) -0.878%
Cn1cccc1C(=O)N[C@H]1C[C@@H](C(=O)O)N(C(=O)CSCC(=O)N2C[C@@H](NC(=O)c3cccn3C)C[C@H]2C(=O)O)C1 5.41%
O=C(CC1C(=O)NCCN1Cc1cccc(Oc2ccccc2)c1)NCc1ccoc1 (configuration not stated) 28.6%
O=C([C@H]1C[C@H](Oc2cccnc2)CN1C(=O)Nc1ccccc1)N1CCOCC1 0.94%
CC(C)=CC(=O)N1C[C@@H](NC(=O)NC2CCCCC2)C[C@H]1C(=O)N[C@H](Cc1c[nH]c2ccccc12)C(N)=O 0.347%
O=S(=O)(c1ccccc1Cl)N1CCC(c2noc(COCc3ccccc3)n2)CC1 32%
O=C(NCc1ccc(Cl)s1)C1CCCN(C2CCN(C(=O)C3CC3)CC2)C1 (configuration not stated) -0.743%
C=CCNC(=O)N[C@H]1C[C@@H](C(=O)N[C@H](Cc2c[nH]c3ccccc23)C(N)=O)N(C(=O)c2cccn2C)C1 -0.822%
COCc1ccccc1-c1cn(C)c(=O)n2cc(COc3ccc(Cl)cc3)nc12 5.28% [at 57.5 µM]
Cc1cccc(S(=O)(=O)N2CCCC(Cn3cc(CO)nn3)C2)c1 (configuration not stated) -1.37%
O=C(C1CCC(=O)N(C2CCCC2)C1)N1CCN(c2nccs2)CC1 (configuration not stated) 2.26%
Cc1cc(C)n(CCC(=O)NCC2CCN(c3cc(-c4ccc(Cl)cc4)[nH]n3)CC2)n1 14.7%
Cc1ccc(C(=O)N2CCC(Cc3noc(C4CCOCC4)n3)C2)s1 (configuration not stated) 10.2%
O=C(c1cnc(C2CC2)nc1)N1CCC2(CCNCC2CO)CC1 (configuration not stated) 4.98%
Cc1ccc(-n2cccc2CC(=O)N2CCCC2)cc1 17.2%
Cc1ccc(CN2CCN(Cc3ccc(=O)n(C)c3)CC2)cc1 0.52%
CN1C(=O)CCC2(CNC(=O)CCc3c[nH]c4ccccc34)CCC=C12 (configuration not stated) 2.26%
CCN1CCN(CCNC(=O)CN2CCCc3nc(C4CC4)ncc3C2=O)CC1 2.43%
N#Cc1ccc(-n2nc(C3CCOCC3)nc2C2(C(N)=O)CC2)cc1 0.22%
CN1CCC(N2CC[C@H](c3nc4ccccc4[nH]3)C2)CC1 8.24% [at 77.1 µM]
O=C(NCCCc1ccccc1F)[C@@]12CNC[C@@H]1CN(Cc1ccccc1)C2 2.98%
C[C@H]1CN(C(=O)CCCc2ccccc2)C[C@@H]1c1nc(-c2ccccc2)no1 0.89%
CCNC(=O)N1CCCC(Cc2noc(-c3cnccn3)n2)C1 (configuration not stated) 5.12%
O=C(CCn1cnnn1)N1CCCC(CCc2cccc(C(F)(F)F)c2)C1 (configuration not stated) 3.31%
CC1(C)C(=O)N(CCOc2ccccc2)[C@H]2CN(CC3CCOC3)C[C@H]2[S+]1(=O)[O-] (some centres not stated) 6.92% [at 57.5 µM]
Cc1cnn(CCC(=O)N2CCC3(CCNCC3)CC2)c1 -13.9%
Cc1nn(C)c(C)c1CCN(C)Cc1ccc(=O)n(C)c1 -5.59%
COc1ccc(C(=O)N2CCC3(C2)C(=O)Nc2ccccc23)cc1 (configuration not stated) 1.38%

Random excerpt: 2 entries already listed.
Activity % (negative = inhibition), inactive:
O=S(=O)(c1ccccc1Cl)N1CCC(c2noc(COCc3ccccc3)n2)CC1 32%
COc1cccc([S+](=O)([O-])N2CCC3(C2)C(=NC2CCCCC2)NC(=O)N3c2cc(F)cc(F)c2)c1 (configuration not stated) -0.878%

Sorted by molecular weight (rising): some entries from above.
Activity % (negative = inhibition), inactive:
Cc1ccccc1C(=O)N(C)C1CCCc2ccccc21 (configuration not stated) -0.841% [at 57.5 µM]
Cc1ccc(C(=O)N2CCC(Cc3noc(C4CCOCC4)n3)C2)s1 (configuration not stated) 10.2%
O=C(CCn1cnnn1)N1CCCC(CCc2cccc(C(F)(F)F)c2)C1 (configuration not stated) 3.31%
